This is one part of the list.
Legend:
Test in all cases: log2 fold change, soluble protein after heating vs DMSO (PISA); higher = thermal stabilisation; K562 cells, 10 uM, 30 min; active = over 0.2 and 3.5 SD of the protein, either way, in both replicates (recomputed)
saracatinib = compound: CN1CCN(CCOc2cc(OC3CCOCC3)c3c(Nc4c(Cl)ccc5c4OCO5)ncnc3c2)CC1 [saracatinib]
How it was run: (§1)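 K562 cells (2×10^6 cells/mL) were treated with 10 μM compound for 30 min, and aliquots were heated for 3 min over 48°C-58°C. Pooled aliquots were extracted in PBS with 0.5% NP-40 at 4°C, and the supernatant after 21,000xg for 90 min was measured by TMTpro 16plex LC-MS/MS with channel sums equalised. Reported thermal stability, relative to control samples and from duplicates, is a log2 fold change.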

Chains of the proteins cited; added tags and fusions are not shown. Lines headed by an entry give the natural chain unless they say otherwise; changes in a name come on top.
UniProt Q99590: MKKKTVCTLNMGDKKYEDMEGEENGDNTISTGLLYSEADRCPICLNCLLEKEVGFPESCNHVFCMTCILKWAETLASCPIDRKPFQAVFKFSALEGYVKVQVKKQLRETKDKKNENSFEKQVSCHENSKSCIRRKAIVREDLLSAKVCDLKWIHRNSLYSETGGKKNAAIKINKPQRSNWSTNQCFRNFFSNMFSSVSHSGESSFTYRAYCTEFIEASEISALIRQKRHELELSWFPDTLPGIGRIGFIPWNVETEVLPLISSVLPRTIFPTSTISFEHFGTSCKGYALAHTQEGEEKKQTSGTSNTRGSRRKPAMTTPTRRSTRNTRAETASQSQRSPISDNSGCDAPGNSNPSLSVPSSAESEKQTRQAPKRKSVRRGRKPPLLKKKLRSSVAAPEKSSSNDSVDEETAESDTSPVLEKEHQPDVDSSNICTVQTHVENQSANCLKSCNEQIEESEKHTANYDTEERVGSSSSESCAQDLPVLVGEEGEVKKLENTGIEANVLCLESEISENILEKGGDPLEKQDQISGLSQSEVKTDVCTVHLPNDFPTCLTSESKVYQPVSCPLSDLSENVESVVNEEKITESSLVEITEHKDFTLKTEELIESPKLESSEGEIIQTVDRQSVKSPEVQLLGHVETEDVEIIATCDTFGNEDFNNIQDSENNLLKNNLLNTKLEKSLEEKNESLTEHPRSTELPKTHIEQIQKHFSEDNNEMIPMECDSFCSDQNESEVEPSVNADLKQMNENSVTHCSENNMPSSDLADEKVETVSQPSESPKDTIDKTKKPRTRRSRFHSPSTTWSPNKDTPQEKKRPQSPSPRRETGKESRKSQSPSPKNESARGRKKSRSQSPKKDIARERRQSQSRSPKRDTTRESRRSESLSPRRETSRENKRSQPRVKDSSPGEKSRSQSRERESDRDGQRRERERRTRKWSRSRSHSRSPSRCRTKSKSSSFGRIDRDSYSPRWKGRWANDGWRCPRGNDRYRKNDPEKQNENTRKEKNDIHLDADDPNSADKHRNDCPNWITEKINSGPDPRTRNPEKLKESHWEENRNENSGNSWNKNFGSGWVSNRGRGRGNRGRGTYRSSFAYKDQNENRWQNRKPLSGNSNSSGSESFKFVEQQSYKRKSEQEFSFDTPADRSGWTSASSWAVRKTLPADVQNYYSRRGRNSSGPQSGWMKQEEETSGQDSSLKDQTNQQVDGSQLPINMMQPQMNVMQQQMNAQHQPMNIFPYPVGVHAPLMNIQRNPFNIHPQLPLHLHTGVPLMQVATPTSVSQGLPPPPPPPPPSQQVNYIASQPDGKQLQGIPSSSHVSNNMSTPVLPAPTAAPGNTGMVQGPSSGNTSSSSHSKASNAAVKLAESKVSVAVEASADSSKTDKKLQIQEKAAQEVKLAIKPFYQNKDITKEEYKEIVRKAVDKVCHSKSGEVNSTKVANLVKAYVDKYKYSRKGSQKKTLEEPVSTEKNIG
UniProt Q9BY50: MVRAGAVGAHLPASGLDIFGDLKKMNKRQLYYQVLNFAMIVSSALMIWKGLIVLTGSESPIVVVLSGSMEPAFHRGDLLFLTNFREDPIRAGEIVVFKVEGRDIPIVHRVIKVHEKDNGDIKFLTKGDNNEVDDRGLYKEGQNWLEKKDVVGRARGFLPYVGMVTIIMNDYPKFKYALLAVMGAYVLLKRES
UniProt O95104: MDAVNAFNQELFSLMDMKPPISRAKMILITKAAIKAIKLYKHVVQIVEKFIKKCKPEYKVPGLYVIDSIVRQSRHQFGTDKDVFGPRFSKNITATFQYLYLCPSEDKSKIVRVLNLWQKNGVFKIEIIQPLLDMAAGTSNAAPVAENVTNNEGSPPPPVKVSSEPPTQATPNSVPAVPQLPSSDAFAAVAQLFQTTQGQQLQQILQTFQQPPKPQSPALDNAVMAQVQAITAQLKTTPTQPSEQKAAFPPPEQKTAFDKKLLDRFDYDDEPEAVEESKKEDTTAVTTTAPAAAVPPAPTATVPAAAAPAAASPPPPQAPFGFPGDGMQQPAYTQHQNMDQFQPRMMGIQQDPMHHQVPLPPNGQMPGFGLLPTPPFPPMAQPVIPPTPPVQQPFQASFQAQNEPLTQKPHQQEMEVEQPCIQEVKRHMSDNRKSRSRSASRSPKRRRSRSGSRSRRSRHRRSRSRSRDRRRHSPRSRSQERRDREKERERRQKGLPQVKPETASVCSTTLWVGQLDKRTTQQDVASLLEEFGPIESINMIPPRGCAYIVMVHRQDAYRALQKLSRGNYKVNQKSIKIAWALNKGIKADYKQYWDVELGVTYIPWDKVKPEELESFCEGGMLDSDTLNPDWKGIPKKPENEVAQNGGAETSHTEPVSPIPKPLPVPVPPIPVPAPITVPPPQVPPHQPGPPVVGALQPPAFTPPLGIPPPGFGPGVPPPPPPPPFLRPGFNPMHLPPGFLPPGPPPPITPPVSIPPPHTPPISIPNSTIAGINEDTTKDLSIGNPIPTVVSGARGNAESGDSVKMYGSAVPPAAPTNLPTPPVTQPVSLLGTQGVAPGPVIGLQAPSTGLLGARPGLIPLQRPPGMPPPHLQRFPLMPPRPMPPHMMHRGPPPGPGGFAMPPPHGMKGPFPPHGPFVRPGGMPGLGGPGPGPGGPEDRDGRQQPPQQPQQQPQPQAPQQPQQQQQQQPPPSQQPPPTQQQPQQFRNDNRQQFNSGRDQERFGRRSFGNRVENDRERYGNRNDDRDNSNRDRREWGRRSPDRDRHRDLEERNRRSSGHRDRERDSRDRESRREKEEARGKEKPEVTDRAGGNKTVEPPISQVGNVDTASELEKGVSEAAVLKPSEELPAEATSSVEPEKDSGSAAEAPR
UniProt O75880: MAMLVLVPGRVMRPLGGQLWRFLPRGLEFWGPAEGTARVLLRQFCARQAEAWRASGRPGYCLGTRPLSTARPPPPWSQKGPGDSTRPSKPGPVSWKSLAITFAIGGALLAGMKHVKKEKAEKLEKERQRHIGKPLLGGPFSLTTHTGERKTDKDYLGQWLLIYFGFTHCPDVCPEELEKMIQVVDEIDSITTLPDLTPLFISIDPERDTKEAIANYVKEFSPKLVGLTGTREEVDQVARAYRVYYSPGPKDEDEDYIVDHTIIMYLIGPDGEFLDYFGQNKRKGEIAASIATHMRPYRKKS
UniProt P22307: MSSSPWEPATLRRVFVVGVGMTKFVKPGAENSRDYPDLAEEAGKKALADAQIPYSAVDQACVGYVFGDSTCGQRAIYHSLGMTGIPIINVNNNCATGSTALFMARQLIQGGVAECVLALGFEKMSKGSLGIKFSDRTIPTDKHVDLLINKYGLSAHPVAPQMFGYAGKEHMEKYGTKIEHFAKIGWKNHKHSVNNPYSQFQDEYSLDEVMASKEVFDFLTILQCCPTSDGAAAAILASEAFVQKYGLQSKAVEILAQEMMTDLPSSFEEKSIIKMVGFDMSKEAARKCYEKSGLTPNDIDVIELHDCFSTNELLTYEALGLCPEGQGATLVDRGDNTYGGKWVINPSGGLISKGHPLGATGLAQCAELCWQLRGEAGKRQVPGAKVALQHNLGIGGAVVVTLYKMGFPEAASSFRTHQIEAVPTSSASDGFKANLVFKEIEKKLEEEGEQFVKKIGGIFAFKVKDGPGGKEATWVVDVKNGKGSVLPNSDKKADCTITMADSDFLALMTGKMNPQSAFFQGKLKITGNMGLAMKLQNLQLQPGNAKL
UniProt O75396: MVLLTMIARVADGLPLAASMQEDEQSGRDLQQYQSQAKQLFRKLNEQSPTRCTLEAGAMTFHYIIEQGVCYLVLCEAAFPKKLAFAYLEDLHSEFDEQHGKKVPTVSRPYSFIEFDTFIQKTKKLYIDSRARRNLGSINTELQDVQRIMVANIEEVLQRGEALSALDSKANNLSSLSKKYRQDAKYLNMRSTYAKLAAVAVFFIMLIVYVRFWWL
UniProt Q9NQC3: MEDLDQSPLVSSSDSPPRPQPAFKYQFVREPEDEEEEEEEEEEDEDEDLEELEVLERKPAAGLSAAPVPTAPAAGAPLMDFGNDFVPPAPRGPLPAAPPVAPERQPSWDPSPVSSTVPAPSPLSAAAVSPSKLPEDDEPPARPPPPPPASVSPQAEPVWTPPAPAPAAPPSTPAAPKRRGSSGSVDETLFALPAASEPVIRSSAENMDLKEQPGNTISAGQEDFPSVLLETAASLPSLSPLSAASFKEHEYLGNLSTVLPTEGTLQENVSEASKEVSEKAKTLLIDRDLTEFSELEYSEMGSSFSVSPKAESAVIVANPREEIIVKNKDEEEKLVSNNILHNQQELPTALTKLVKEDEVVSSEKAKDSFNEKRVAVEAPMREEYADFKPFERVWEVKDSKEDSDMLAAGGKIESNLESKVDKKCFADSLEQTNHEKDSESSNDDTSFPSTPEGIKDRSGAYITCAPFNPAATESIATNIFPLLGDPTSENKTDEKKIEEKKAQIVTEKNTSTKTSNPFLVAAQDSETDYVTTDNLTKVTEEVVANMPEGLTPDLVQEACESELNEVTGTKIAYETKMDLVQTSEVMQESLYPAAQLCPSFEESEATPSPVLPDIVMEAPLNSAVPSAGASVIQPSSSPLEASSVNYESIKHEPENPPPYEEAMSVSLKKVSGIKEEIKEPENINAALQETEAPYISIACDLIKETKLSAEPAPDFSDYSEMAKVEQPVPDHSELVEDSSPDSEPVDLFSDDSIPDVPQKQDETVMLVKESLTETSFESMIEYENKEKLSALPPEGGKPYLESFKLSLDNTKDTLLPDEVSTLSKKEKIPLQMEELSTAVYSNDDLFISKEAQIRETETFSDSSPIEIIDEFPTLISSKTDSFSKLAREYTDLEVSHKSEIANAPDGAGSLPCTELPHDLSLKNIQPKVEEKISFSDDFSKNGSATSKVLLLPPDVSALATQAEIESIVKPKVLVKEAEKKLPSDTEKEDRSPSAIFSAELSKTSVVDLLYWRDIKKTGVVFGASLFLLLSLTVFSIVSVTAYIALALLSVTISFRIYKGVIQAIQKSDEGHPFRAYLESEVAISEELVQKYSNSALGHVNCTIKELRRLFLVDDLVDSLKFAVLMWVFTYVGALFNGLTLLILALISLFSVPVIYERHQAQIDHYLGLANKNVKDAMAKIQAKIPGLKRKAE
UniProt Q9Y3I0: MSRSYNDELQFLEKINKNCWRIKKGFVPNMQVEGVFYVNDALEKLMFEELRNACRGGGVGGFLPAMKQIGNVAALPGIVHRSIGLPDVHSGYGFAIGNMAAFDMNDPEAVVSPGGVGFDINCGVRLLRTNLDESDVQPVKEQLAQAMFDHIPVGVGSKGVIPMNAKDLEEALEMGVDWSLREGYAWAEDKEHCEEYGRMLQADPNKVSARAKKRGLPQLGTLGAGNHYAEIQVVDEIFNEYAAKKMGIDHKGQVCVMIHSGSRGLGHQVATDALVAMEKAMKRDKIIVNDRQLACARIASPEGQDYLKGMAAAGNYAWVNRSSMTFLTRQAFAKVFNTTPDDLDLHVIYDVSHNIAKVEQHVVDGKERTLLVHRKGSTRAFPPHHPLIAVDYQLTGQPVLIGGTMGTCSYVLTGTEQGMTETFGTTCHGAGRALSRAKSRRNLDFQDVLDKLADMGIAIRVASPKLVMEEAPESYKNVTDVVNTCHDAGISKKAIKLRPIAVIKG

sotrastaurin = compound: CN1CCN(c2nc(C3=C(c4c[nH]c5ccccc45)C(=O)NC3=O)c3ccccc3n2)CC1 [sotrastaurin]
How it was run: as §1

alvocidib = compound: CN1CC[C@H](c2c(O)cc(O)c3c(=O)cc(-c4ccccc4Cl)oc23)[C@H](O)C1 [alvocidib]
How it was run: as §1

Tubastatin A = compound: CN1CCc2c(c3ccccc3n2Cc2ccc(C(=O)NO)cc2)C1 [Tubastatin A]
How it was run: as §1

[1] = compound: CNC(=O)C1=CC=CC=C1NC2=NC(=NC=C2Cl)NC3=C(C=C(C=C3)N4CCOCC4)OC
How it was run: as §1

defactinib = compound: CNC(=O)c1ccc(Nc2ncc(C(F)(F)F)c(NCc3nccnc3N(C)S(C)(=O)=O)n2)cc1 [defactinib]
How it was run: as §1

rucaparib = compound: CNCc1ccc(-c2[nH]c3cc(F)cc4c3c2CCNC4=O)cc1 [rucaparib]
How it was run: as §1

[2] = compound: CNc1nc(-c2ccc3c(N)n[nH]c3c2)cc(N2C[C@@H](C(=O)NC3CCCCC3)CC[C@H]2C)n1
How it was run: as §1

encorafenib = compound: COC(=O)N[C@@H](C)CNc1nccc(-c2cn(C(C)C)nc2-c2cc(Cl)cc(NS(C)(=O)=O)c2F)n1 [encorafenib]
How it was run: as §1

[3] = compound: COC(=O)[C@H](CCSC)NC(=O)C1=C(C=C(C=C1)NC[C@H](CS)N)C2=CC=CC=C2
How it was run: as §1

[4] = compound: COC1=CC=C(C=C1)CN2C=CC3=C2C=C(C=C3)C(=O)NO
How it was run: as §1

filanesib = compound: CON(C)C(=O)N1N=C(c2cc(F)ccc2F)S[C@@]1(CCCN)c1ccccc1 [filanesib]
How it was run: as §1

zotarolimus = compound: CO[C@H]1C[C@@H]2CC[C@@H](C)[C@@](O)(O2)C(=O)C(=O)N2CCCC[C@H]2C(=O)O[C@H]([C@H](C)C[C@@H]2CC[C@H](n3cnnn3)[C@H](OC)C2)CC(=O)[C@H](C)/C=C(\C)[C@@H](O)[C@@H](OC)C(=O)[C@H](C)C[C@H](C)/C=C/C=C/C=C/1C [zotarolimus]
How it was run: as §1

idasanutlin = compound: COc1cc(C(=O)O)ccc1NC(=O)[C@@H]1N[C@@H](CC(C)(C)C)[C@](C#N)(c2ccc(Cl)cc2F)[C@H]1c1cccc(Cl)c1F [idasanutlin]
How it was run: as §1

alisertib = compound: COc1cc(Nc2ncc3c(n2)-c2ccc(Cl)cc2C(c2c(F)cccc2OC)=NC3)ccc1C(=O)O [alisertib]
How it was run: as §1

[5] = compound: COc1cc2nc(-c3cc(F)ccc3O)nc(N[C@@H]3CNC[C@H]3C(C)(C)O)c2cc1OC
How it was run: as §1

gefitinib = compound: COc1cc2ncnc(Nc3ccc(F)c(Cl)c3)c2cc1OCCCN1CCOCC1 [gefitinib]
How it was run: as §1

[6] = compound: COc1cccc2cc(-c3nc([C@H]4CC[C@H](C(=O)O)CC4)n4ncnc(N)c34)[nH]c12
How it was run: as §1

lapatinib = compound: CS(=O)(=O)CCNCc1ccc(-c2ccc3ncnc(Nc4ccc(OCc5cccc(F)c5)c(Cl)c4)c3c2)o1 [lapatinib]
How it was run: as §1

pictilisib = compound: CS(=O)(=O)N1CCN(Cc2cc3nc(-c4cccc5[nH]ncc45)nc(N4CCOCC4)c3s2)CC1 [pictilisib]
How it was run: as §1

Row | Target | log2 fold change (saracatinib) | log2 fold change (sotrastaurin) | log2 fold change (alvocidib) | log2 fold change (Tubastatin A) | log2 fold change [1] | log2 fold change (defactinib) | log2 fold change (rucaparib) | log2 fold change [2] | log2 fold change (encorafenib) | log2 fold change [3] | log2 fold change [4] | log2 fold change (filanesib) | log2 fold change (zotarolimus) | log2 fold change (idasanutlin) | log2 fold change (alisertib) | log2 fold change [5] | log2 fold change (gefitinib) | log2 fold change [6] | log2 fold change (lapatinib) | log2 fold change (pictilisib)
1 | SCAF11 (UniProt Q99590) | inactive: 0.075 | inactive: 0.227 | active: 1.25 | inactive: -0.052 | inactive: -0.077 | active: 0.579 | inactive: 0.35 | inactive: -0.052 | inactive: 0.042 | inactive: 0.188 | inactive: 0.365 | inactive: 0.141 | inactive: -0.029 | inactive: 0.054 | inactive: -0.1 | inactive: -0.028 | inactive: -0.013 | inactive: -0.071 | inactive: 0.156 | inactive: -0.382
2 | SEC11C (UniProt Q9BY50) | inactive: -0.066 | inactive: 0 | inactive: 0.031 | inactive: 0.005 | inactive: -0.061 | inactive: 0.012 | inactive: 0.002 | inactive: -0.002 | inactive: 0.057 | inactive: -0.041 | inactive: -0.034 | inactive: -0.083 | inactive: -0.001 | inactive: -0.119 | inactive: -0.028 | inactive: 0.056 | inactive: -0.048 | inactive: 0 | inactive: -0.019 | inactive: -0.002
3 | SCAF4 (UniProt O95104) | inactive: 0.114 | inactive: -0.013 | inactive: 0.043 | inactive: -0.004 | inactive: -0.07 | inactive: -0.047 | inactive: 0.124 | inactive: 0.008 | inactive: 0.017 | inactive: -0.002 | inactive: -0.053 | inactive: 0.006 | inactive: -0.016 | inactive: 0.036 | inactive: 0.075 | inactive: -0.123 | inactive: 0.041 | inactive: 0.025 | inactive: -0.092 | inactive: 0.076
4 | SCO1 (UniProt O75880) | inactive: -0.032 | inactive: 0.041 | inactive: -0.115 | inactive: 0.024 | inactive: 0.014 | inactive: -0.026 | inactive: -0.006 | inactive: 0.025 | inactive: -0.018 | inactive: 0.365 | inactive: -0.009 | inactive: 0.046 | inactive: 0.013 | inactive: 0.128 | inactive: -0.003 | inactive: 0.021 | inactive: 0.032 | inactive: 0.015 | inactive: -0.011 | inactive: 0.041
5 | SCP2 (UniProt P22307) | inactive: -0.02 | inactive: 0.024 | inactive: -0.012 | inactive: -0.008 | inactive: 0.051 | inactive: 0 | inactive: -0.032 | inactive: -0.021 | inactive: -0.02 | inactive: -0.007 | inactive: 0.029 | inactive: -0.031 | inactive: -0.025 | inactive: -0.05 | inactive: -0.042 | inactive: 0.013 | inactive: 0.018 | inactive: 0.03 | inactive: 0.014 | inactive: 0.045
6 | SEC22B (UniProt O75396) | inactive: 0.011 | inactive: 0.002 | inactive: -0.044 | inactive: 0 | inactive: 0.007 | inactive: -0.055 | inactive: -0.063 | inactive: 0.02 | inactive: 0.01 | inactive: 0.011 | inactive: 0.057 | inactive: -0.031 | inactive: 0.055 | inactive: -0.009 | inactive: -0.083 | inactive: 0.034 | inactive: 0.017 | inactive: -0.031 | inactive: 0.031 | inactive: 0.019
7 | RTN4 (UniProt Q9NQC3) | inactive: 0.073 | inactive: 0.021 | inactive: -0.019 | inactive: -0.022 | inactive: 0.018 | inactive: -0.019 | inactive: -0.131 | inactive: -0.032 | inactive: 0.008 | inactive: 0.038 | inactive: -0.034 | inactive: -0.01 | inactive: -0.028 | inactive: -0.046 | inactive: 0.011 | inactive: 0.057 | inactive: -0.037 | inactive: 0.09 | inactive: -0.057 | inactive: 0.061
8 | RTCB (UniProt Q9Y3I0) | inactive: -0.007 | inactive: 0.007 | inactive: 0.031 | inactive: -0.044 | inactive: -0.003 | inactive: 0.064 | inactive: 0.037 | inactive: 0.013 | inactive: 0.041 | inactive: 0.006 | inactive: -0.063 | inactive: 0.042 | inactive: 0.006 | inactive: 0.032 | inactive: -0.023 | inactive: -0.03 | inactive: -0.005 | inactive: -0.047 | inactive: 0.061 | inactive: 0.008

— the supplement of paper PMC10849652
